Measurements: publication PMC11844287
These are yes or no findings as the source states them, for the method shown. Binding seen in cells or lysates may run through a third protein. Here binding means that the protein was enriched with, or labelled near, the bait; the list need not be complete.

Amino acid sequences for entries named in this document (tags omitted).
UniProt Q15717: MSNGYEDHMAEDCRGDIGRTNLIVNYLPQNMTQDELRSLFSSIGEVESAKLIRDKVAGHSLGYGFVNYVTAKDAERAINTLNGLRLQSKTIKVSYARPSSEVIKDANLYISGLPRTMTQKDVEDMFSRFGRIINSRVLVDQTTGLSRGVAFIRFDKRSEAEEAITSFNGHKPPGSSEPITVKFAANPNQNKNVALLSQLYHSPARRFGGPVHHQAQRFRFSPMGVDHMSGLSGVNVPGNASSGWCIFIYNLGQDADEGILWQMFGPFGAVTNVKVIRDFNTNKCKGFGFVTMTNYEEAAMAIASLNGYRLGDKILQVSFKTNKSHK

Target: T1, B cell receptor associated protein 31 (BAP31) (human (endogenous in HCC cells)) (UniProt P51572)
T1 sequence: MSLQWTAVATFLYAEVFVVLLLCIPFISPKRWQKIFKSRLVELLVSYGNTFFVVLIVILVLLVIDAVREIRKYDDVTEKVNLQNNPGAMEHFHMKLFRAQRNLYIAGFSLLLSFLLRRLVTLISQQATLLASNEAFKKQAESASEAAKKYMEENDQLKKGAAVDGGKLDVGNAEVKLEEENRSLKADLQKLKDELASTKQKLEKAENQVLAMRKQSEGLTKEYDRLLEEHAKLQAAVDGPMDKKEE
Assay: affinity purification with mass spectrometry; cell lysate with anti-BAP31 mouse monoclonal antibody or mouse IgG isotype and Protein A/G PLUS-Agarose, overnight; differential Coomassie-stained gel spots analysed by LC-MS/MS

In the case of “embryonic lethal abnormal vision like 1 (ELAVL1) (from UniProt Q15717 1-326)”, the binding is reported as “binds”.
